{"sequences": {"note": "Protein sequences, listed by entry. Tags and fused reporters are not part of them. Lines headed by an entry give the natural chain unless they say otherwise; changes in a name come on top.", "UniProt Q8WVV9": "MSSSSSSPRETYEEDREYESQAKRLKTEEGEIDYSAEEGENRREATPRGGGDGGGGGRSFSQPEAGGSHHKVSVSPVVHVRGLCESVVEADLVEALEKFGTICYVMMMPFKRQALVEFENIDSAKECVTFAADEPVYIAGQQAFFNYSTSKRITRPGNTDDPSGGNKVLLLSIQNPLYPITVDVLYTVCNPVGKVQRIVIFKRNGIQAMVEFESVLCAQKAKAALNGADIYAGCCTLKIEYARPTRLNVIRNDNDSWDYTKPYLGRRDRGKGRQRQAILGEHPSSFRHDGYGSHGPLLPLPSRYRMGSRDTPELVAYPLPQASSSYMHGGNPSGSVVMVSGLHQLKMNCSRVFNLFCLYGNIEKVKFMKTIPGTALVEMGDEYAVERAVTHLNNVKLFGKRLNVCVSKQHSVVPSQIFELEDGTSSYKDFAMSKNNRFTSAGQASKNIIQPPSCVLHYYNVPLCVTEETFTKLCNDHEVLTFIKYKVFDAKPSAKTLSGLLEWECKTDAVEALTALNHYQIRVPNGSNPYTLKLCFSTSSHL", "UniProt P56524": "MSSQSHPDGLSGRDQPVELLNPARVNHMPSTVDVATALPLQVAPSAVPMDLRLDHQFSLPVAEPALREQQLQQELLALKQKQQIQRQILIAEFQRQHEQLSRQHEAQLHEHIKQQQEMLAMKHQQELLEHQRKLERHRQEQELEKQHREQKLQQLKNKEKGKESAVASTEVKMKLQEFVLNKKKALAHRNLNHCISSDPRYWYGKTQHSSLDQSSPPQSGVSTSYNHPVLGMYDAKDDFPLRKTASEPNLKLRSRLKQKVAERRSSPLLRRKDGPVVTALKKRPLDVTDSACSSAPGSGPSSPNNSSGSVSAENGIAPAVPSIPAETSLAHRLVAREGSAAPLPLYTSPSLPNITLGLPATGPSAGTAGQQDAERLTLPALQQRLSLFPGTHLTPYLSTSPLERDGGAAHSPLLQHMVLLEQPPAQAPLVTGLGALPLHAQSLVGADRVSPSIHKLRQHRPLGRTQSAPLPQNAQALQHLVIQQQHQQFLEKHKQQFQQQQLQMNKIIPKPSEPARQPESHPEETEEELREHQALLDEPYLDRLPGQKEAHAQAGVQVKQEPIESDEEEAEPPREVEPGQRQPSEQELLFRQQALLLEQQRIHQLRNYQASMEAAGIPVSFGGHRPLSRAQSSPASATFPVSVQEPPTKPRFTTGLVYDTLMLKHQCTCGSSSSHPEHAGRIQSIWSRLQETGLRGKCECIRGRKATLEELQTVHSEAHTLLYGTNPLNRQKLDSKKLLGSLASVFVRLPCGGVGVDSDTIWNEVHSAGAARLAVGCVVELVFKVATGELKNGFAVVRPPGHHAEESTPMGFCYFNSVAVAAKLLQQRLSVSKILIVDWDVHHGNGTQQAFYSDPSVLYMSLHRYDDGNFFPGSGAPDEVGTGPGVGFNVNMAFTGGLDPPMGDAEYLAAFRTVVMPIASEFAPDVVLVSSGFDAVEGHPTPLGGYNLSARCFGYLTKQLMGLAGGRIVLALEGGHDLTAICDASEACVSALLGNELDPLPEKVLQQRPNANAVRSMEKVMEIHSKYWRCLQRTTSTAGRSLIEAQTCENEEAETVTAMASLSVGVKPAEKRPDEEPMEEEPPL", "UniProt O95714": "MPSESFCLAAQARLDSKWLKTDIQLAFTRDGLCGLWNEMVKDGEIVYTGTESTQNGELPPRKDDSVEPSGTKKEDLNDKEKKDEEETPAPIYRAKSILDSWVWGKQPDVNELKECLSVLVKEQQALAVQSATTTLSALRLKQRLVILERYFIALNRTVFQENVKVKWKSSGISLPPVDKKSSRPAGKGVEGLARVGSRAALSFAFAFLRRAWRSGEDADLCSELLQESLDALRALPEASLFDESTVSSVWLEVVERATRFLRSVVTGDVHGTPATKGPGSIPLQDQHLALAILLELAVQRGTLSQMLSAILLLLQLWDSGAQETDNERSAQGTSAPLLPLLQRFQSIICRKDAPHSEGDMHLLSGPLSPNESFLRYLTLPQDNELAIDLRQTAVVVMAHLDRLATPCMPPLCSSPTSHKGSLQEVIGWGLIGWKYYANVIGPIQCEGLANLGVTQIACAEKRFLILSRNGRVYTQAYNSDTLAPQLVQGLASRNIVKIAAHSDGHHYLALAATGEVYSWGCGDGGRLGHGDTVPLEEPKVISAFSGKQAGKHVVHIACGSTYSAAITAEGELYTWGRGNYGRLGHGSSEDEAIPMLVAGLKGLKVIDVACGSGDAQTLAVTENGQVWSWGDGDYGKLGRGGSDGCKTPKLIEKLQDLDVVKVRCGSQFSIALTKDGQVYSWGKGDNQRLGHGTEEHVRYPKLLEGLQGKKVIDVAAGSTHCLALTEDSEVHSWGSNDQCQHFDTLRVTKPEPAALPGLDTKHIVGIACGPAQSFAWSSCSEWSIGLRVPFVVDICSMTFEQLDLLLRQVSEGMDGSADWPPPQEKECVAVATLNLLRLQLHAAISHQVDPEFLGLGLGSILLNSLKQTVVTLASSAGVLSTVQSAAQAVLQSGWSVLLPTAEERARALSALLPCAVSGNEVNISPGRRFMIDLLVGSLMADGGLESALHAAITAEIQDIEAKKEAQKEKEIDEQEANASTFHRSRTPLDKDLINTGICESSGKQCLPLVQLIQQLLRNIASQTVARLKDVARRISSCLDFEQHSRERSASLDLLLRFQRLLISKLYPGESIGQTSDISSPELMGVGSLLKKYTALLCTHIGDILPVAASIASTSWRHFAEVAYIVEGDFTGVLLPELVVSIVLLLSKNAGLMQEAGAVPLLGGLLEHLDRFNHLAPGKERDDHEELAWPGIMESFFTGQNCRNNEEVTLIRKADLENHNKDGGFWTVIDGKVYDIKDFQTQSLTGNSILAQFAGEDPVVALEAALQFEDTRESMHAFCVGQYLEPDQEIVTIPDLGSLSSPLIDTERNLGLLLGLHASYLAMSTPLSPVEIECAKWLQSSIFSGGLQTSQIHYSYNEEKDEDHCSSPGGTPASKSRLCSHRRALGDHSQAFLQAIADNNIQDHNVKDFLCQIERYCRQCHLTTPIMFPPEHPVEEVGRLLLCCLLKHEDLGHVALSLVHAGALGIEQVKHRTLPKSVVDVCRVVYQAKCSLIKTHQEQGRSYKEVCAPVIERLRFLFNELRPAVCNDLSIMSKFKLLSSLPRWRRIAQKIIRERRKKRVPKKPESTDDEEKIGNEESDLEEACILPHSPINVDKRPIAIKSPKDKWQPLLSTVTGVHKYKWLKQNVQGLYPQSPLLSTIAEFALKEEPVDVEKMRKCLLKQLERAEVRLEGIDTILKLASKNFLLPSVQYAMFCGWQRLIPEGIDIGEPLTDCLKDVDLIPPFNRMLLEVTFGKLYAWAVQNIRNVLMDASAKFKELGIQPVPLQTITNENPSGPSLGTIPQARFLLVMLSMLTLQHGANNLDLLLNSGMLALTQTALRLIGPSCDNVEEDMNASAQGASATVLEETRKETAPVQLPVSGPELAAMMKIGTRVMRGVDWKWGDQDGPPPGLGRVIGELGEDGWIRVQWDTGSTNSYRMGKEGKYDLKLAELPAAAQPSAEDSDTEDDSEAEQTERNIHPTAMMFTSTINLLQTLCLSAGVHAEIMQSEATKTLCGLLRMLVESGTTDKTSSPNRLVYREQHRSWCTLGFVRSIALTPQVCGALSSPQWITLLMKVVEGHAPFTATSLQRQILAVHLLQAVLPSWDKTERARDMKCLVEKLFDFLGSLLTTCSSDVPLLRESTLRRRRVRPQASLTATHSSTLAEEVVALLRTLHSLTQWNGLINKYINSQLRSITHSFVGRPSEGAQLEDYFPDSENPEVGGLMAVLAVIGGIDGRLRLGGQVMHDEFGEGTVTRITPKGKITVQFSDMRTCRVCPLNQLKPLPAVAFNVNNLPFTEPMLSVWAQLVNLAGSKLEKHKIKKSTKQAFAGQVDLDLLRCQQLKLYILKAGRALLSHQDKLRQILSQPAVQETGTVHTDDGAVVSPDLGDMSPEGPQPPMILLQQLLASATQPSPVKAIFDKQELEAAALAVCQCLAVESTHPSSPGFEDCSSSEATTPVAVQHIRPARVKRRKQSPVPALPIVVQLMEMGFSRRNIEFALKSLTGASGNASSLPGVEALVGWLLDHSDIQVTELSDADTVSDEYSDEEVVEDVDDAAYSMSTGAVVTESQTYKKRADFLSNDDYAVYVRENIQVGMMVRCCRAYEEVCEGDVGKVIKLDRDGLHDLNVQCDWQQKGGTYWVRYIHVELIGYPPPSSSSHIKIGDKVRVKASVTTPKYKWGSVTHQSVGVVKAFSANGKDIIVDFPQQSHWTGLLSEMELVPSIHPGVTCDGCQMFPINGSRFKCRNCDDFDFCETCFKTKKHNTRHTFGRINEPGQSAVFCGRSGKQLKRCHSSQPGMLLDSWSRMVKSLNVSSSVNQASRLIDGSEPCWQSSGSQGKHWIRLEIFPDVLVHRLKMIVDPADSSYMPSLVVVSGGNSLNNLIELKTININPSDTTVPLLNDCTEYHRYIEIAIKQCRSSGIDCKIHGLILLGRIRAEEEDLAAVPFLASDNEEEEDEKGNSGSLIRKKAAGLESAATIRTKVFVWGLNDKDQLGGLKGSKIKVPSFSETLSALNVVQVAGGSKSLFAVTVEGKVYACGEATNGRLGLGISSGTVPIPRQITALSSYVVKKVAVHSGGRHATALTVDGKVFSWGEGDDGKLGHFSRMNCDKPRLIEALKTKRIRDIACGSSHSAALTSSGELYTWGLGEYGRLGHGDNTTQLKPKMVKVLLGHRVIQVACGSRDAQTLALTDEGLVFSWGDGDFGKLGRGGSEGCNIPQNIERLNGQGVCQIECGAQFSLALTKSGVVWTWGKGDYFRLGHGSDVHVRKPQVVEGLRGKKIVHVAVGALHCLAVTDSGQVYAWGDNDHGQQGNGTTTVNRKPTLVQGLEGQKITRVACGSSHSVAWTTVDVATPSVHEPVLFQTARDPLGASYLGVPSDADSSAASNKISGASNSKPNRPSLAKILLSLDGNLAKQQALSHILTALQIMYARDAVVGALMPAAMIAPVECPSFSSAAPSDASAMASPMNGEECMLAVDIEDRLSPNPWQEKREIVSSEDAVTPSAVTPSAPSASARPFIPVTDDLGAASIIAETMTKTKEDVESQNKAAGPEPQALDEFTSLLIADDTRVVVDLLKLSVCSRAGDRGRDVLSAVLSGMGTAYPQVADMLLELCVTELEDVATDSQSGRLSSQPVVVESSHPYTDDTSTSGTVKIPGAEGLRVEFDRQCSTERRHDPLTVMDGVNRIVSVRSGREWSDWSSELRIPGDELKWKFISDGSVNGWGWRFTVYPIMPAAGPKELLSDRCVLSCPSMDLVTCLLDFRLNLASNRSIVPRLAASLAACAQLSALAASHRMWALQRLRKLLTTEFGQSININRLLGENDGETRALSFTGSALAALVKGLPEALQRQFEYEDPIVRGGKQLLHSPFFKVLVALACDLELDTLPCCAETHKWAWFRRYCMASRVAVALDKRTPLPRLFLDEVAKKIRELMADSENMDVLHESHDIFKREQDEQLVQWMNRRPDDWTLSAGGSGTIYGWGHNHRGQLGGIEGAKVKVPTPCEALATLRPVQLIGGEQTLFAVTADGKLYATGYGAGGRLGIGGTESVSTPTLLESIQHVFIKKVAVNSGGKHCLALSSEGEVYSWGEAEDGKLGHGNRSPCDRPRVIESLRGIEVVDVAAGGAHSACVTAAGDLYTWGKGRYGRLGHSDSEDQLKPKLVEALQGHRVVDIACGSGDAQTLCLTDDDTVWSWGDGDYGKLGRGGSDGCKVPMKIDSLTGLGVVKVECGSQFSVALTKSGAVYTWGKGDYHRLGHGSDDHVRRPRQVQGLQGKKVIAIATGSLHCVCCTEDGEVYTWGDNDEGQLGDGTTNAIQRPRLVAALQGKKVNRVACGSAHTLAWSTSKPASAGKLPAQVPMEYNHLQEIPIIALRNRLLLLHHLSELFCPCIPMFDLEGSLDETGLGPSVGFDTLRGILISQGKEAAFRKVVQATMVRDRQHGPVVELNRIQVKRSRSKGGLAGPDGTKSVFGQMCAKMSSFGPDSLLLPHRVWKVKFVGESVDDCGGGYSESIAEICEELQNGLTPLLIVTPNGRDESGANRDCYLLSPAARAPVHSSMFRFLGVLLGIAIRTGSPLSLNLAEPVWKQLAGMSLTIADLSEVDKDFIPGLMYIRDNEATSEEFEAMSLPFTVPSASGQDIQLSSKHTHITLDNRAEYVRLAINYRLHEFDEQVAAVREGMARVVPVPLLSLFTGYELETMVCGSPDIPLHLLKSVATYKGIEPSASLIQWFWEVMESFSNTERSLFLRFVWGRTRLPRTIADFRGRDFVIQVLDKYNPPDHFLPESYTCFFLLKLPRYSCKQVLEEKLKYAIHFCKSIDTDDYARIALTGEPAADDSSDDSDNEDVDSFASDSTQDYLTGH"}, "source": "the supplement of paper PMC11732987", "about": "“Enantioselective OTUD7B fragment discovery through chemoproteomics screening and high-throughput optimisation” (Communications Chemistry, 2025)", "note": "Some of the results follow. The data scatter; read single values as rough."}
{"compound": "ClCC(=O)N[C@H]1CCCc2ccccc12", "test": "log2 mean competition ratio of IA-DTB cysteine labelling (DMSO/compound) (log2 ratio); higher = stronger cysteine engagement by compound", "conditions": "50 µM; treatment time: 4 h; cell line lysate: HEK293T", "description": "(§1)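 IA-DTB competitive cysteine chemoproteomics in HEK293T RIPA lysate. Lysates were treated with compound 29 or 30 at 50 or 200 µM for 4 h, then IA-DTB (500 µM, 1 h), trypsin-digested, NeutrAvidin-enriched and analysed by diaPASEF. Competition ratio = intensity DMSO / intensity compound (n=4 treated, n=64 DMSO); binding: mean log2 CR ≥ 1 and p ≤ 0.05 plus QC filters. Target is the cysteine site.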"}
{"target": "GTPBP6 C99 (UniProt O43824)", "log2 mean competition ratio": -0.0138}
{"target": "HMCES C39 (UniProt Q96FZ2)", "log2 mean competition ratio": -0.135}
{"target": "HOPX C68", "log2 mean competition ratio": -0.121}
{"target": "GTF3C1 C1681 (UniProt Q12789)", "log2 mean competition ratio": 0.208}
{"target": "HJURP C348 (UniProt Q8NCD3)", "log2 mean competition ratio": 0.0681}
{"target": "HOXC6 C87", "log2 mean competition ratio": 0.143}
{"target": "HECTD4 C3916", "log2 mean competition ratio": -0.296}
{"target": "HEATR1 C1237 (UniProt Q9H583)", "log2 mean competition ratio": 0.049}
{"target": "HABP4 C236 (UniProt Q5JVS0)", "log2 mean competition ratio": -0.0783}
{"target": "GTPBP2 C249 (UniProt Q9BX10)", "log2 mean competition ratio": -0.218}
{"target": "HAPLN3 C233", "log2 mean competition ratio": 0.259}
{"target": "HOXB6 C88", "log2 mean competition ratio": -0.339}
{"target": "GTF3C1 C286 (UniProt Q12789)", "log2 mean competition ratio": -0.0505}
{"target": "HDGFL2 C631 (UniProt Q7Z4V5)", "log2 mean competition ratio": 0.107}
{"target": "HLTF C942 (UniProt Q14527)", "log2 mean competition ratio": 0.508}
{"target": "HERC1 C1941 (UniProt Q15751)", "log2 mean competition ratio": 0.0718}
{"target": "HNRNPM C114", "log2 mean competition ratio": 0.414}
{"target": "GSTM3 C3 (UniProt P21266)", "log2 mean competition ratio": 0.547}
{"target": "HAUS4 C272 (UniProt Q9H6D7)", "log2 mean competition ratio": -0.127}
{"target": "HDAC1 C408 (UniProt Q13547)", "log2 mean competition ratio": 0.202}
{"target": "GTF3C1 C114 (UniProt Q12789)", "log2 mean competition ratio": 0.304}
{"target": "HOXC10 C47", "log2 mean competition ratio": 0.74}
{"target": "HDLBP C636", "log2 mean competition ratio": 0.0952}
{"target": "GTPBP3 C46 (UniProt Q969Y2)", "log2 mean competition ratio": -0.0183}
{"target": "HOXB6 C184", "log2 mean competition ratio": 0.167}
{"target": "HMGXB3 C434 (UniProt Q12766)", "log2 mean competition ratio": -0.223}
{"target": "HNRNPLL C474 (UniProt Q8WVV9)", "log2 mean competition ratio": -0.664}
{"target": "HOXB6 C137", "log2 mean competition ratio": 0.326}
{"target": "HDAC4 C194 (UniProt P56524)", "log2 mean competition ratio": 0.152}
{"target": "HECTD3 C530 (UniProt Q5T447)", "log2 mean competition ratio": -0.334}
{"target": "HERC2 C1506 (UniProt O95714)", "log2 mean competition ratio": 0.113}
{"target": "HECTD1 C58 (UniProt Q9ULT8)", "log2 mean competition ratio": 0.147}
{"target": "HERC2 C1037 (UniProt O95714)", "log2 mean competition ratio": -0.125}
{"target": "HEATR5B C810 (UniProt Q9P2D3)", "log2 mean competition ratio": -0.0743}
{"target": "GUK1 C98 (UniProt Q16774)", "log2 mean competition ratio": -0.494}
{"target": "GTF2H1 C506 (UniProt P32780)", "log2 mean competition ratio": 0.96}
{"target": "GSTO1 C32", "log2 mean competition ratio": 0.829}
{"target": "HEATR5B C870 (UniProt Q9P2D3)", "log2 mean competition ratio": 0.134}
{"compound": "ClCC(=O)N[C@H]1CCCc2ccccc12", "test": "log2 mean competition ratio of IA-DTB cysteine labelling (DMSO/compound) (log2 ratio); higher = stronger cysteine engagement by compound", "conditions": "200 µM; treatment time: 4 h; cell line lysate: HEK293T", "description": "as §1"}
{"target": "GTPBP6 C99 (UniProt O43824)", "log2 mean competition ratio": 0.0281}
{"target": "HMCES C39 (UniProt Q96FZ2)", "log2 mean competition ratio": -0.141}
{"target": "HOPX C68", "log2 mean competition ratio": -0.121}
{"target": "GTF3C1 C1681 (UniProt Q12789)", "log2 mean competition ratio": -0.093}
{"target": "HJURP C348 (UniProt Q8NCD3)", "log2 mean competition ratio": 0.238}
{"target": "HOXC6 C87", "log2 mean competition ratio": 0.375}
{"target": "HECTD4 C3916", "log2 mean competition ratio": 0.0338}
{"target": "HEATR1 C1237 (UniProt Q9H583)", "log2 mean competition ratio": -0.0439}
{"target": "HABP4 C236 (UniProt Q5JVS0)", "log2 mean competition ratio": 0.0135}
{"target": "GTPBP2 C249 (UniProt Q9BX10)", "log2 mean competition ratio": 0.127}
{"target": "HAPLN3 C233", "log2 mean competition ratio": 0.365}
{"target": "HOXB6 C88", "log2 mean competition ratio": -0.38}
{"target": "GTF3C1 C286 (UniProt Q12789)", "log2 mean competition ratio": 0.177}
{"target": "HDGFL2 C631 (UniProt Q7Z4V5)", "log2 mean competition ratio": -0.0058}
{"target": "HLTF C942 (UniProt Q14527)", "log2 mean competition ratio": 0.305}
{"target": "HERC1 C1941 (UniProt Q15751)", "log2 mean competition ratio": 0.323}
{"target": "HNRNPM C114", "log2 mean competition ratio": 0.0633}
{"target": "GSTM3 C3 (UniProt P21266)", "log2 mean competition ratio": -0.13}
{"target": "HAUS4 C272 (UniProt Q9H6D7)", "log2 mean competition ratio": 0.0581}
{"target": "HDAC1 C408 (UniProt Q13547)", "log2 mean competition ratio": 0.189}
{"target": "GTF3C1 C114 (UniProt Q12789)", "log2 mean competition ratio": 0.245}
{"target": "HOXC10 C47", "log2 mean competition ratio": 0.369}
{"target": "HDLBP C636", "log2 mean competition ratio": 0.166}
{"target": "GTPBP3 C46 (UniProt Q969Y2)", "log2 mean competition ratio": 0.244}
{"target": "HOXB6 C184", "log2 mean competition ratio": 0.0571}
{"target": "HMGXB3 C434 (UniProt Q12766)", "log2 mean competition ratio": 0.0811}
{"target": "HNRNPLL C474 (UniProt Q8WVV9)", "log2 mean competition ratio": -0.354}
{"target": "HOXB6 C137", "log2 mean competition ratio": -0.136}
{"target": "HDAC4 C194 (UniProt P56524)", "log2 mean competition ratio": 0.42}
{"target": "HECTD3 C530 (UniProt Q5T447)", "log2 mean competition ratio": -0.534}
{"target": "HERC2 C1506 (UniProt O95714)", "log2 mean competition ratio": -0.0934}
{"target": "HECTD1 C58 (UniProt Q9ULT8)", "log2 mean competition ratio": -0.0702}
{"target": "HERC2 C1037 (UniProt O95714)", "log2 mean competition ratio": 0.197}
{"target": "HEATR5B C810 (UniProt Q9P2D3)", "log2 mean competition ratio": 0.068}
{"target": "GUK1 C98 (UniProt Q16774)", "log2 mean competition ratio": -0.129}
{"target": "GTF2H1 C506 (UniProt P32780)", "log2 mean competition ratio": 0.482}
{"target": "GSTO1 C32", "log2 mean competition ratio": -0.109}
{"target": "HEATR5B C870 (UniProt Q9P2D3)", "log2 mean competition ratio": 0.42}
